Measurements: PMC7515719
The exact form of at least one protein or probe is not confirmed. At least one verdict was read from the data and is not stated in words by the source.

Chains of the proteins cited; added tags and fusions are not shown. A line that says so, or that is headed by a name, gives the form on record, which may keep a tag or linker.
XPGn3 wild-type del113-749 (Homo sapiens), one chain, as listed by the source, chain 2 of 2: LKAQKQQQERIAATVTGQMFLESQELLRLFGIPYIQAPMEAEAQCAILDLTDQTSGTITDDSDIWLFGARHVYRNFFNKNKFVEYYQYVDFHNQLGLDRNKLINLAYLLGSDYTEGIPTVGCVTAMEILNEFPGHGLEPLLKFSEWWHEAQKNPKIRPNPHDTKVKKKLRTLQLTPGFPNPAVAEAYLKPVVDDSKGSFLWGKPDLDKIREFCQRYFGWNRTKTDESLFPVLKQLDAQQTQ
XPGn3 wild-type del113-749 (Homo sapiens), one chain, as listed by the source, chain 1 of 2: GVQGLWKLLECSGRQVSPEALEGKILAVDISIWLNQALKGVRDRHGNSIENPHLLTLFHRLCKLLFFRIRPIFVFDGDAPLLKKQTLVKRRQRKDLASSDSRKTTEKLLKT

System: XPGn3 wild-type del113-749 (Homo sapiens)
Experiment: EMSA
Details: EMSA: 2.5 uM DNA, 1-8 uM protein, 25 C, 30 min, 7% native PAGE; recombinant protein; protein details: N-terminal His-TEV cleaved

TACTTGCAGAGTTCGC / GCGAACTCTGCAGAGCA [DNA-2 splayed-arm]
binding result: binds
